Measured values as given in PubChem BioAssay AID256 (DTP/NCI, 2004).
The list shows only some results of the screen, not a fair sample: it gathers tests that were run many times, whatever their T/C, doses with no T/C, and many T/C values between a quarter and a half above the control. Other doses and runs of a compound stand elsewhere. T/C gives the treated animals as a percentage of the vehicle group. Some entries give survivors of the animals treated and no T/C: the source files T/C as zero there, which appears to mark a toxic dose or a test without result, not a measured value. Some survivor counts are full or nearly so, which does not show that the dose was tolerated: the source hardly ever lists a survival T/C far under the control, and the zero likely stands for such cases as well. Survivors were counted at the toxicity check, usually on the fifth day, unless a day is given; later deaths do not show. Schedule codes are those of the source, read here as Q, the interval in days (D) or hours (H), X, the number of doses. Some entries were tested several times; their values stand side by side, smallest first. For survival time, this PubChem deposit counts one and a half times the control or more as active, and values a quarter to a half above the control carry no call in these data; other NCI protocols may use other cut-offs. Some T/C values are followed by the survivors on the day toxicity was checked, most often the fifth; without a count, all were alive then.

System: CD2F1 mice, L1210 leukemia ip, survival T/C
Assay: NCI In Vivo Anticancer Drug Screen. Data for tumor model L1210 Leukemia (intraperitoneal) in CD2F1 (CDF1) mice
Settings: higher T/C = longer survival
Outline: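 Read-out first: treated-group measurement over vehicle-control measurement, expressed as a ratio. Animals bore a transplanted tumor line and were dosed with compound or vehicle.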

[1] = T/C endpoint: median survival time, dose: 100.0 mg/kg/injection, schedule: Q01DX005 (ip), vehicle: Klucel (hydroxypropylcellulose) (HPC)
[2] = T/C endpoint: mean survival time, dose: 400.0 mg/kg/injection, schedule: Q04DX003 (ip), vehicle: saline with Tween-80
[3] = T/C endpoint: mean survival time, dose: 200.0 mg/kg/injection, schedule: Q04DX003 (ip), vehicle: saline with Tween-80
[4] = T/C endpoint: mean survival time, dose: 400.0 mg/kg/injection, schedule: Q01DX009 (ip), vehicle: saline with Tween-80
[5] = T/C endpoint: mean survival time, dose: 300.0 mg/kg/injection, schedule: Q01DX001 (ip), vehicle: saline
[6] = T/C endpoint: mean survival time, dose: 200.0 mg/kg/injection, schedule: Q01DX009 (ip), vehicle: Klucel (hydroxypropylcellulose) (HPC)
[7] = T/C endpoint: mean survival time, dose: 150.0 mg/kg/injection, schedule: Q01DX001 (ip), vehicle: saline
[8] = T/C endpoint: mean survival time, dose: 400.0 mg/kg/injection, schedule: Q01DX009 (ip), vehicle: water
[9] = T/C endpoint: mean survival time, dose: 100.0 mg/kg/injection, schedule: Q01DX009 (ip), vehicle: saline with Tween-80
[10] = T/C endpoint: mean survival time, dose: 200.0 mg/kg/injection, schedule: Q01DX009 (ip), vehicle: saline with Tween-80

## CCOC(=O)Nc1cc(NC(C)/C(=N/O)c2ccccc2)c([N+](=O)[O-])c(N)n1 (configuration not stated)
T/C endpoint: median survival time, dose: 72.0 mg/kg/injection, schedule: Q01DX005 (ip), vehicle: Klucel (hydroxypropylcellulose) (HPC)
  T/C: 128 and 135 % of control
[1]
  T/C: 138 % of control
  survivor count: 6 of 6
T/C endpoint: median survival time, dose: 120.0 mg/kg/injection, schedule: Q01DX005 (ip), vehicle: Klucel (hydroxypropylcellulose) (HPC)
  survivor count: 6 of 6
T/C endpoint: median survival time, dose: 200.0 mg/kg/injection, schedule: Q01DX005 (ip), vehicle: Klucel (hydroxypropylcellulose) (HPC)
  survivor count: 3 of 6 and 6 of 6
T/C endpoint: median survival time, dose: 333.3 mg/kg/injection, schedule: Q01DX005 (ip), vehicle: Klucel (hydroxypropylcellulose) (HPC)
  survivor count: 3 of 6
T/C endpoint: median survival time, dose: 400.0 mg/kg/injection, schedule: Q01DX005 (ip), vehicle: Klucel (hydroxypropylcellulose) (HPC)
  survivor count: 2 of 6 and 3 of 6
T/C endpoint: median survival time, dose: 555.5 mg/kg/injection, schedule: Q01DX005 (ip), vehicle: Klucel (hydroxypropylcellulose) (HPC)
  survivor count: 1 of 6

## Cc1ncoc1C(=O)O
[2]
  survivor count: 2 of 6

## COc1cccc2c1C(=O)c1c(O)c3c(c(O)c1C2=O)C[C@](O)(C(=O)CO)CC3OC1CC(N)C(OC2CCCCO2)C(C)O1 (some centres not stated)
T/C endpoint: median survival time, dose: 6.0 mg/kg/injection, schedule: Q01DX009 (ip), vehicle: water
  T/C: 126 and 134 % of control
T/C endpoint: median survival time, dose: 12.0 mg/kg/injection, schedule: Q01DX009 (ip), vehicle: water
  survivor count: 5 of 6
T/C endpoint: median survival time, dose: 24.0 mg/kg/injection, schedule: Q01DX009 (ip), vehicle: water
  survivor count: 5 of 6
T/C endpoint: median survival time, dose: 25.0 mg/kg/injection, schedule: Q01DX009 (ip), vehicle: water
  survivor count: 2 of 6
T/C endpoint: median survival time, dose: 50.0 mg/kg/injection, schedule: Q01DX009 (ip), vehicle: water
  survivor count: 0 of 6
T/C endpoint: median survival time, dose: 100.0 mg/kg/injection, schedule: Q01DX009 (ip), vehicle: water
  survivor count: 0 of 6

## CC(=O)OC1(C)CC(C)(C)N=[N+]1[O-] (configuration not stated)
T/C endpoint: mean survival time, dose: 400.0 mg/kg/injection, schedule: Q01DX009 (ip), vehicle: Klucel (hydroxypropylcellulose) (HPC)
  survivor count: 0 of 3

## NC(=O)C(NCc1ccccc1)c1ccccc1 (configuration not stated)
[2]
  survivor count: 5 of 6

## NC(=S)N/N=C\c1nccc2c(C(F)(F)F)cccc12
T/C endpoint: mean survival time, dose: 400.0 mg/kg/injection, schedule: Q04DX002 (ip), vehicle: saline with Tween-80
  survivor count: 3 of 3

## COc1ccc2c(c1OC(C)=O)-c1cc(OC(C)=O)cc3c1C(C2)N(C(=O)CCl)CC3 (configuration not stated)
T/C endpoint: mean survival time, dose: 200.0 mg/kg/injection, schedule: Q04DX003 (ip), vehicle: DMSO
  survivor count: 2 of 6
T/C endpoint: mean survival time, dose: 400.0 mg/kg/injection, schedule: Q04DX003 (ip), vehicle: DMSO
  survivor count: 1 of 6

## NC(CCl)=NCC12CC3CC(CC(C3)C1)C2
T/C endpoint: median survival time, dose: 48.0 mg/kg/injection, schedule: Q01DX009 (ip), vehicle: Klucel (hydroxypropylcellulose) (HPC)
  survivor count: 5 of 6

## O=C(C=C(C(F)(F)F)C(F)(F)F)c1ccco1
T/C endpoint: mean survival time, dose: 100.0 mg/kg/injection, schedule: Q04DX003 (ip), vehicle: saline with Tween-80
  survivor count: 6 of 6
[3]
  survivor count: 0 of 6
[2]
  survivor count: 0 of 6

## O=C1CSC(=S)N1
[4]
  survivor count: 4 of 6

## C=CC1C[N+]2(SS(=O)(=O)O)CCC1CC2C(O)c1ccnc2ccc(OC)cc12 (configuration not stated)
T/C endpoint: mean survival time, dose: 300.0 mg/kg/injection, schedule: Q04DX003 (ip), vehicle: saline
  survivor count: 4 of 6

## FC1(F)C(Cl)=[C]([Hg][C]2=C(Cl)C(F)(F)C(F)(F)C(F)(F)C2(F)F)C(F)(F)C(F)(F)C1(F)F
T/C endpoint: mean survival time, dose: 150.0 mg/kg/injection, schedule: Q04DX003 (ip), vehicle: saline
  survivor count: 1 of 6
[5]
  survivor count: 1 of 6

## COc1ccc([N+](=O)[O-])cc1C[S+](C)C
T/C endpoint: mean survival time, dose: 50.0 mg/kg/injection, schedule: Q01DX009 (ip), vehicle: Klucel (hydroxypropylcellulose) (HPC)
  survivor count: 1 of 3
T/C endpoint: mean survival time, dose: 100.0 mg/kg/injection, schedule: Q01DX009 (ip), vehicle: Klucel (hydroxypropylcellulose) (HPC)
  survivor count: 0 of 3
[6]
  survivor count: 0 of 3

## CC(=O)CC(=O)C1CCC(C(=O)CC(C)=O)CC1 (configuration not stated)
[2]
  survivor count: 6 of 6

## CC(C)(C)/[N+]([O-])=N/O
[7]
  survivor count: 0 of 6
[5]
  survivor count: 0 of 6

## Cc1ccc(C(=O)N/N=C/C(=O)O)cc1
[8]
  survivor count: 3 of 6

## CCCCCCCCCCCCCCCCCCOCC(CO)OC (configuration not stated)
T/C endpoint: median survival time, dose: 400.0 mg/kg/injection, schedule: Q01DX009 (ip), vehicle: saline with Tween-80
  survivor count: 2 of 6

## NCc1cccn1OCc1ccccc1
[6]
  survivor count: 0 of 6

## O=C(O)c1ccccc1C(=O)Nc1ccc([N+](=O)[O-])cc1
[3]
  survivor count: 3 of 3

## CCCCCCCCCCCCCCCC[n+]1ccc(C(N)=O)cc1
T/C endpoint: mean survival time, dose: 25.0 mg/kg/injection, schedule: Q01DX009 (ip), vehicle: saline with Tween-80
  survivor count: 6 of 6
T/C endpoint: mean survival time, dose: 50.0 mg/kg/injection, schedule: Q01DX009 (ip), vehicle: saline with Tween-80
  survivor count: 2 of 6

## CCCC1=CC(C)(C)CC(C)=C1 (tested in a mixture with another compound)
[2]
  survivor count: 3 of 6

## CC1CNC(Cl)O1 (configuration not stated)
[2]
  survivor count: 0 of 3

## NC(N)=N/N=C/c1cc(Br)ccc1O
T/C endpoint: mean survival time, dose: 75.0 mg/kg/injection, schedule: Q01DX009 (ip), vehicle: saline
  survivor count: 3 of 6
T/C endpoint: mean survival time, dose: 150.0 mg/kg/injection, schedule: Q01DX009 (ip), vehicle: saline
  survivor count: 2 of 6

## C#CCNc1ncnc2c1ncn2C1OC(CO)C(O)C1O (configuration not stated)
T/C endpoint: mean survival time, dose: 400.0 mg/kg/injection, schedule: Q01DX005 (ip), vehicle: other
  survivor count: 2 of 6

## c1ccc(NC2=NCCO2)cc1
[2]
  survivor count: 2 of 6

## CNC(=O)NNC(=O)c1ccc(Cl)cc1
[9]
  survivor count: 4 of 6
[10]
  survivor count: 0 of 6
[4]
  survivor count: 0 of 6

## CCOC(=O)/C=C/C(=O)[O-].CCOC(=O)/C=C/C(=O)[O-].NC1CCCCC1N.[Pt+4]
T/C endpoint: median survival time, dose: 50.0 mg/kg/injection, schedule: Q04DX003 (ip), vehicle: saline with Tween-80
  T/C: 127 and 138 % of control
T/C endpoint: median survival time, dose: 100.0 mg/kg/injection, schedule: Q04DX003 (ip), vehicle: saline with Tween-80
  T/C: 137 % of control

## O=C(O)c1ccccc1C(=O)Nc1ccc(Cl)cc1
[4]
  survivor count: 3 of 6

## COC1OC(CSC#N)C2OC(C)(C)OC12 (configuration not stated)
T/C endpoint: mean survival time, dose: 75.0 mg/kg/injection, schedule: Q01DX001 (ip), vehicle: saline
  survivor count: 0 of 6
T/C endpoint: mean survival time, dose: 80.0 mg/kg/injection, schedule: Q01DX001 (ip), vehicle: saline
  survivor count: 1 of 6
[7]
  survivor count: 0 of 6
[5]
  survivor count: 0 of 6

## [NH-]C(CCC(N)=O)C(=O)O.[NH-]C(CCC(N)=O)C(=O)O.[Zn+2] (configuration not stated)
T/C endpoint: median survival time, dose: 100.0 mg/kg/injection, schedule: Q01DX009 (ip), vehicle: saline with Tween-80
  survivor count: 0 of 6

## Cc1cc2nc(N)[nH]c2cc1C
T/C endpoint: mean survival time, dose: 100.0 mg/kg/injection, schedule: Q04DX002 (ip), vehicle: saline + alcohol
  survivor count: 1 of 3
T/C endpoint: mean survival time, dose: 200.0 mg/kg/injection, schedule: Q04DX002 (ip), vehicle: saline + alcohol
  survivor count: 0 of 3
T/C endpoint: mean survival time, dose: 400.0 mg/kg/injection, schedule: Q04DX002 (ip), vehicle: saline + alcohol
  survivor count: 0 of 3

## CCCCCCCCCCCCSC1=C(Cl)C(=O)C(OC)=C(OC)C1=O
[9]
  survivor count: 3 of 6

## CCCC(C)C/C(C)=C/C(C)(C)C(CC(=O)N1CCOCC1)C(=O)O (configuration not stated)
[10]
  survivor count: 1 of 6
[2]
  survivor count: 0 of 6

## O=S(=O)(O)O.[NH-]C1CCCCC1C1CCCCC1[NH-].[Pt+2] (configuration not stated)
T/C endpoint: mean survival time, dose: 6.25 mg/kg/injection, schedule: Q04DX003 (ip), vehicle: distilled water + Tween-80
  T/C: 133 % of control
T/C endpoint: mean survival time, dose: 25.0 mg/kg/injection, schedule: Q04DX003 (ip), vehicle: distilled water + Tween-80
  T/C: 147 % of control
T/C endpoint: mean survival time, dose: 50.0 mg/kg/injection, schedule: Q04DX003 (ip), vehicle: distilled water + Tween-80
  T/C: 144 % of control [5 of 6 alive]

## COc1cccc(C(=O)c2ccncc2C)c1OC
[8]
  survivor count: 1 of 6
